Results are given in words; binding and its absence hold for the method and conditions named. In cells and extracts the contact can be indirect. Where a sequence is shown, tags or fusion partners need not be part of it.

The target in the assay is T1, Pro-casp1-His (murine) (UniProt P29452).
T1 sequence: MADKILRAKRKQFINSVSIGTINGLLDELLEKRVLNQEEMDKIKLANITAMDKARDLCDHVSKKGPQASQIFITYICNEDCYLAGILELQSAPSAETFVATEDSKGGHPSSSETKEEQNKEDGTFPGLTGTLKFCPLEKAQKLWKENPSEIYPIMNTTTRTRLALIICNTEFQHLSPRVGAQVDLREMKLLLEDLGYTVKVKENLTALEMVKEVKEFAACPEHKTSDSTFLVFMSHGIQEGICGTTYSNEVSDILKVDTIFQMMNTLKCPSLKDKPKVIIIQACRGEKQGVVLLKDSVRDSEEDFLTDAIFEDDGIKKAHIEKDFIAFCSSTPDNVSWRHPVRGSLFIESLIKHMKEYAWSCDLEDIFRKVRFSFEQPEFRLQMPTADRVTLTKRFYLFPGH
Kind of assay: co-IP; HEK293T transiently transfected for 48 h; lysate in 50 mM HEPES pH 7.0, 250 mM NaCl, 1 mM EDTA, 0.2% Nonidet P-40; overnight at 4 °C with anti-Flag M2 affinity gel or anti-c-Myc agarose; immunoblot; in some experiments varying amounts of cGSN or MAVS plasmid, or BAPTA-AM (5, 20, 40 μM) during transfection. In general terms: In western blotting, separated proteins are transferred to a membrane and probed.

For the substance Myc-GSN (murine), the binding entry is on record as “no binding”.

The values are drawn from PMC11618363.
